No constants are given. Whether binding was seen depends on the method and setting. In cells and extracts the contact can be indirect. A yes stands for co-enrichment or nearness to the bait. Other partners may have been found.
Assays:
histatin 5 (human) = histatin 5 (human) (UniProt P15516); test: affinity purification with mass spectrometry; co-IP: synthetic histatin 5 held by mouse anti-histatin 3/5 monoclonal antibody on protein G magnetic beads; 300 ug pooled parotid saliva protein in PBS pH 7.5, 4°C, 24 h; washed with PBS; eluted with 2.5% acetic acid; in-solution or in-gel trypsin digestion, LC-ESI-MS/MS; only the target purified
[1] = molecular target: biotinylated histatin 5 (human) (UniProt P15516); test: affinity purification with mass spectrometry; pull-down: biotinylated histatin 5 on immobilized streptavidin agarose beads; 300 ug lyophilized parotid saliva in pH 7.0 binding buffer, 4 h, 4°C; washed with PBS with 75 mM NaCl pH 5.0; eluted at pH 2.8; trypsin digestion, LC-ESI-MS/MS; only the target purified

Amino acid sequences for entries named in this document (tags omitted). Residues count along the entry.
UniProt P15516, residues 20-43: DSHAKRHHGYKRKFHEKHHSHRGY

Row | binding (histatin 5 (human)) | binding [1] | Binder
1 | binds | binds | Zinc finger CCCH domain-containing protein 3 (protein, UniProt Q8IXZ2 1-948) MEEKEILRRQIRLLQGLIDDYKTLHGNAPAPGTPAASGWQPPTYHSGRAFSARYPRPSRRGYSSHHGPSWRKKYSLVNRPPGPSDPPADHAVRPLHGARGGQPPVPQQHVLERQVQLSQGQNVVIKVKPPSKSGSASASGAQRGSLEEFEETPWSDQRPREGEGEPPRGQLQPSRPTRARGTCSVEDPLLVCQKEPGKPRMVKSVGSVGDSPREPRRTVSESVIAVKASFPSSALPPRTGVALGRKLGSHSVASCAPQLLGDRRVDAGHTDQPVPSGSVGGPARPASGPRQAREASLVVTCRTNKFRKNNYKWVAASSKSPRVARRALSPRVAAENVCKASAGMANKVEKPQLIADPEPKPRKPATSSKPGSAPSKYKWKASSPSASSSSSFRWQSEASSKDHASQLSPVLSRSPSGDRPAVGHSGLKPLSGETPLSAYKVKSRTKIIRRRSSTSLPGDKKSGTSPAATAKSHLSLRRRQALRGKSSPVLKKTPNKGLVQVTTHRLCRLPPSRAHLPTKEASSLHAVRTAPTSKVIKTRYRIVKKTPASPLSAPPFPLSLPSWRARRLSLSRSLVLNRLRPVASGGGKAQPGSPWWRSKGYRCIGGVLYKVSANKLSKTSGQPSDAGSRPLLRTGRLDPAGSCSRSLASRAVQRSLAIIRQARQRREKRKEYCMYYNRFGRCNRGERCPYIHDPEKVAVCTRFVRGTCKKTDGTCPFSHHVSKEKMPVCSYFLKGICSNSNCPYSHVYVSRKAEVCSDFLKGYCPLGAKCKKKHTLLCPDFARRGACPRGAQCQLLHRTQKRHSRRAATSPAPGPSDATARSRVSASHGPRKPSASQRPTRQTPSSAALTAAAVAAPPHCPGGSASPSSSKASSSSSSSSSPPASLDHEAPSLQEAALAAACSNRLCKLPSFISLQSSPSPGAQPRVRAPRAPLTKDSGKPLHIKPRL
2 | binds | binds | Ubiquitin-conjugating enzyme E2, J2 (UBC6 homolog, yeast) (Fragment) (protein, UniProt Q8N2K1 1-259) MSSTSSKRAPTTATQRLKQDYLRIKKDPVPYICAEPLPSNILEWHYVVRGPEMTPYEGGYYHGKLIFPREFPFKPPSIYMITPNGRFKCNTRLCLSITDFHPDTWNPAWSVSTILTGLLSFMVEKGPTLGSIETSDFTKRQLAVQSLAFNLKDKVFCELFPEVVEEIKQKQKAQDELSSRPQTLPLPDVVPDGETHLVQNGIQLLNGHAPGAVPNLAGLQQANRHHGLLGGALANLFVIVGFAAFAYTVKYVLRSIAQE
3 | binds | binds | Prolactin-inducible protein (protein, UniProt P12273 29-146) QDNTRKIIIKNFDIPKSVRPNDEVTAVLAVQTELKECMVVKTYLISSIPLQGAFNYKYTACLCDDNPKTFYWDFYTNRTVQIAAVVDVIRELGICPDDAAVIPIKNNRFYTIEILKVE
4 | binds | binds | DSSEEKFLRRIGRFGYGYGPYQPVPEQPLYPQPYQPQYQQYTF (peptide, UniProt P02808 20-62) [Statherin]

Continued, binder first:

Row | Binder | binding (histatin 5 (human)) | binding [1]
5 | Alpha-amylase 1 (enzyme, UniProt P0DUB6 16-511) QYSSNTQQGRTSIVHLFEWRWVDIALECERYLAPKGFGGVQVSPPNENVAIHNPFRPWWERYQPVSYKLCTRSGNEDEFRNMVTRCNNVGVRIYVDAVINHMCGNAVSAGTSSTCGSYFNPGSRDFPAVPYSGWDFNDGKCKTGSGDIENYNDATQVRDCRLSGLLDLALGKDYVRSKIAEYMNHLIDIGVAGFRIDASKHMWPGDIKAILDKLHNLNSNWFPEGSKPFIYQEVIDLGGEPIKSSDYFGNGRVTEFKYGAKLGTVIRKWNGEKMSYLKNWGEGWGFMPSDRALVFVDNHDNQRGHGAGGASILTFWDARLYKMAVGFMLAHPYGFTRVMSSYRWPRYFENGKDVNDWVGPPNDNGVTKEVTINPDTTCGNDWVCEHRWRQIRNMVNFRNVVDGQPFTNWYDNGSNQVAFGRGNRGFIVFNNDDWTFSLTLQTGLPAGTYCDVISGDKINGNCTGIKIYVSDDGKAHFSISNSAEDPFIAIHAESKL | binds | binds
6 | PIBF1 protein (protein, UniProt Q8WXW3 1-757) MSRKISKESKKVNISSSLESEDISLETTVPTDDISSSEEREGKVRITRQLIERKELLHNIQLLKIELSQKTMMIDNLKVDYLTKIEELEEKLNDALHQKQLLTLRLDNQLAFQQKDASKYQELMKQEMETILLRQKQLEETNLQLREKAGDVRRNLRDFELTEEQYIKLKAFPEDQLSIPEYVSVRFYELVNPLRKEICELQVKKNILAEELSTNKNQLKQLTETYEEDRKNYSEVQIRCQRLALELADTKQLIQQGDYRQENYDKVKSERDALEQEVIELRRKHEILEASHMIQTKERSELSKEVVTLEQTVTLLQKDKEYLNRQNMELSVRCAHEEDRLERLQAQLEESKKAREEMYEKYVASRDHYKTEYENKLHDELEQIRLKTNQEIDQLRNASREMYERENRNLREARDNAVAEKERAVMAEKDALEKHDQLLDRYRELQLSTESKVTEFLHQSKLKSFESERVQLLQEETARNLTQCQLECEKYQKKLEVLTKEFYSLQASSEKRITELQAQNSEHQARLDIYEKLEKELDEIIMQTAEIENEDEAERVLFSYGYGANVPTTAKRRLKQSVHLARRVLQLEKQNSLILKDLEHRKDQVTQLSQELDRANSLLNQTQQPYRYLIESVRQRDSKIDSLTESIAQLEKDVSNLNKEKSALLQTKNQMALDLEQLLNHREELAAMKQILVKMHSKHSENSLLLTKTEPKHVTENQKSKTLNVPKEHEDNIFTPKPTLFTKKEAPEWSKKQKMKT | binds | binds
7 | Pancreatic adenocarcinoma upregulated factor (protein, UniProt Q96DA0 17-172) GKMYGPGGGKYFSTTEDYDHEITGLRVSVGLLLVKSVQVKLGDSWDVKLGALGGNTQEVTLQPGEYITKVFVAFQAFLRGMVMYTSKDRYFYFGKLDGQISSAYPSQEGQVLVGIYGQYQLLGIKSIGFEWNYPLEEPTTEPPVNLTYSANSPVGR | binds | binds
8 | Long palate, lung and nasal epithelium carcinoma-associated protein 1 (protein, UniProt Q8TDL5 22-484) TLSPTAVLILGPKVIKEKLTQELKDHNATSILQQLPLLSAMREKPAGGIPVLGSLVNTVLKHIIWLKVITANILQLQVKPSANDQELLVKIPLDMVAGFNTPLVKTIVEFHMTTEAQATIRMDTSASGPTRLVLSDCATSHGSLRIQLLHKLSFLVNALAKQVMNLLVPSLPNLVKNQLCPVIEASFNGMYADLLQLVKVPISLSIDRLEFDLLYPAIKGDTIQLYLGAKLLDSQGKVTKWFNNSAASLTMPTLDNIPFSLIVSQDVVKAAVAAVLSPEEFMVLLDSVLPESAHRLKSSIGLINEKAADKLGSTQIVKILTQDTPEFFIDQGHAKVAQLIVLEVFPSSEALRPLFTLGIEASSEAQFYTKGDQLILNLNNISSDRIQLMNSGIGWFQPDVLKNIITEIIHSILLPNQNGKLRSGVPVSLVKALGFEAAESSLTKDALVLTPASLWKPSSPVSQ | binds | binds
9 | Matrix Gla protein (protein, UniProt P08493 20-96) YESHESMESYELNPFINRRNANTFISPQQRWRAKVQERIRERSKPVHELNREACDDYRLCERYAMVYGYNAAYNRYF | binds | binds
10 | Lysozyme C (F8VV32) (enzyme, UniProt P61626 19-148) KVFERCELARTLKRLGMDGYRGISLANWMCLAKWESGYNTRATNYNAGDRSTDYGIFQINSRYWCNDGKTPGAVNACHLSCSALLQDNIADAVACAKRVVRDPQGIRAWVAWRNRCQNRDVRQYVQGCGV | binds | binds
11 | Probable cation-transporting ATPase 13A2 (Fragment) (protein, UniProt Q9NQ11 1-1180) MSADSSPLVGSTPTGYGTLTIGTSIDPLSSSVSSVRLSGYCGSPWRVIGYHVVVWMMAGIPLLLFRWKPLWGVRLRLRPCNLAHAETLVIEIRDKEDSSWQLFTVQVQTEAIGEGSLEPSPQSQAEDGRSQAAVGAVPEGAWKDTAQLHKSEEAVSVGQKRVLRYYLFQGQRYIWIETQQAFYQVSLLDHGRSCDDVHRSRHGLSLQDQMVRKAIYGPNVISIPVKSYPQLLVDEALNPYYGFQAFSIALWLADHYYWYALCIFLISSISICLSLYKTRKQSQTLRDMVKLSMRVCVCRPGGEEEWVDSSELVPGDCLVLPQEGGLMPCDAALVAGECMVNESSLTGESIPVLKTALPEGLGPYCAETHRRHTLFCGTLILQARAYVGPHVLAVVTRTGFCTAKGGLVSSILHPRPINFKFYKHSMKFVAALSVLALLGTIYSIFILYRNRVPLNEIVIRALDLVTVVVPPALPAAMTVCTLYAQSRLRRQGIFCIHPLRINLGGKLQLVCFDKTGTLTEDGLDVMGVVPLKGQAFLPLVPEPRRLPVGPLLRALATCHALSRLQDTPVGDPMDLKMVESTGWVLEEEPAADSAFGTQVLAVMRPPLWEPQLQAMEEPPVPVSVLHRFPFSSALQRMSVVVAWPGATQPEAYVKGSPELVAGLCNPETVPTDFAQMLQSYTAAGYRVVALASKPLPTVPSLEAAQQLTRDTVEGDLSLLGLLVMRNLLKPQTTPVIQALRRTRIRAVMVTGDNLQTAVTVARGCGMVAPQEHLIIVHATHPERGQPASLEFLPMESPTAVNGVKDPDQAASYTVEPDPRSRHLALSGPTFGIIVKHFPKLLPKVLVQGTVFARMAPEQKTELVCELQKLQYCVGMCGDGANDCGALKAADVGISLSQAEASVVSPFTSSMASIECVPMVIREGRCSLDTSFSVFKYMALYSLTQFISVLILYTINTNLGDLQFLAIDLVITTTVAVLMSRTGPALVLGRVRPPGALLSVPVLSSLLLQMVLVTGVQLGGYFLTLAQPWFVPLNRTVAAPDNLPNYENTVVFSLSSFQYLILAAAVSKGAPFRRPLYTNVPFLVALALLSSVLVGLVLVPGLLQGPLALRNITDTGFKLLLLGLVTLNFVGAFMLESVLDQCLPACLRRLRPKRASKKRFKQLERELAEQPWPPLPAGPLR | binds | binds

Source: paper PMC4636238
